For experiment [1], the target named is endogenous β-catenin (human (endogenous in HCT116)) (UniProt P35222). Nature of the experiment: co-IP; lysates of control and Bcl-3-silenced HCT116 cells, IP with anti-β-catenin antibody, immunoblot; endogenous proteins. In general terms: A western blot detects proteins with antibodies after separation by electrophoresis.
Experiment [2] has as its target T1, endogenous Bcl-3 (B-cell lymphoma 3) (human (endogenous in HCT116)) (UniProt P20749).
T1 sequence: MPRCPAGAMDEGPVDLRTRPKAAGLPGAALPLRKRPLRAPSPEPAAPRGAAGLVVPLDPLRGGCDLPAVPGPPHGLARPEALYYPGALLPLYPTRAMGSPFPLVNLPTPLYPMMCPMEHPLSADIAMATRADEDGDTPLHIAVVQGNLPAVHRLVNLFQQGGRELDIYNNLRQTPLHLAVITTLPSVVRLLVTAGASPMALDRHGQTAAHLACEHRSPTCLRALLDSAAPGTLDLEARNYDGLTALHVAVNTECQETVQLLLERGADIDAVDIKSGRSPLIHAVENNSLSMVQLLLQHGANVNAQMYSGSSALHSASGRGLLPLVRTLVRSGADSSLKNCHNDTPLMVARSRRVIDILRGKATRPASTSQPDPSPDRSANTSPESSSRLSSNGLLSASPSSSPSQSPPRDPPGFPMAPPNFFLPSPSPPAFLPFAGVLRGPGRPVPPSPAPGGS
Nature of the experiment: co-IP; HCT116 cell lysates, IP with anti-Bcl-3 antibody, immunoblot; endogenous proteins.

The chains behind the UniProt entries cited, without tags or fusion partners.
UniProt P35222: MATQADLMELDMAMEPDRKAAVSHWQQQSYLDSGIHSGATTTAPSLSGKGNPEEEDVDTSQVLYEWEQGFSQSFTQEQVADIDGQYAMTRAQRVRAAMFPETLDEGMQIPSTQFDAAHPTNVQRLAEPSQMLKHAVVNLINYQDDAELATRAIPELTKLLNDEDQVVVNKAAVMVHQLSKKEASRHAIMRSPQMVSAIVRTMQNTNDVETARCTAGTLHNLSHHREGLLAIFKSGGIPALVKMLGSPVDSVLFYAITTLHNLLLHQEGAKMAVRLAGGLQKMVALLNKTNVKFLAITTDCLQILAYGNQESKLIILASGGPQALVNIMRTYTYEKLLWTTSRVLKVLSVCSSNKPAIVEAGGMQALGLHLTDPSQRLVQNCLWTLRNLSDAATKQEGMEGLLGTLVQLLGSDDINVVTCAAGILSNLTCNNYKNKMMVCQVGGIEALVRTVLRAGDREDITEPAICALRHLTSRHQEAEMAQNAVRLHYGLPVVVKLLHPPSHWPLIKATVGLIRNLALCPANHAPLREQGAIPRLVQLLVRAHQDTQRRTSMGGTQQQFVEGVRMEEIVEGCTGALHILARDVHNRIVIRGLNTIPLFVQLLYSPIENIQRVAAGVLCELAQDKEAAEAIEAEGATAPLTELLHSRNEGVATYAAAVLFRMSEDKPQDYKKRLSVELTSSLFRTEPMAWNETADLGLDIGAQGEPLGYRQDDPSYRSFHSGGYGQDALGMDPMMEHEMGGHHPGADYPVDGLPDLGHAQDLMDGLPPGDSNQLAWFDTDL
UniProt Q9UBN7: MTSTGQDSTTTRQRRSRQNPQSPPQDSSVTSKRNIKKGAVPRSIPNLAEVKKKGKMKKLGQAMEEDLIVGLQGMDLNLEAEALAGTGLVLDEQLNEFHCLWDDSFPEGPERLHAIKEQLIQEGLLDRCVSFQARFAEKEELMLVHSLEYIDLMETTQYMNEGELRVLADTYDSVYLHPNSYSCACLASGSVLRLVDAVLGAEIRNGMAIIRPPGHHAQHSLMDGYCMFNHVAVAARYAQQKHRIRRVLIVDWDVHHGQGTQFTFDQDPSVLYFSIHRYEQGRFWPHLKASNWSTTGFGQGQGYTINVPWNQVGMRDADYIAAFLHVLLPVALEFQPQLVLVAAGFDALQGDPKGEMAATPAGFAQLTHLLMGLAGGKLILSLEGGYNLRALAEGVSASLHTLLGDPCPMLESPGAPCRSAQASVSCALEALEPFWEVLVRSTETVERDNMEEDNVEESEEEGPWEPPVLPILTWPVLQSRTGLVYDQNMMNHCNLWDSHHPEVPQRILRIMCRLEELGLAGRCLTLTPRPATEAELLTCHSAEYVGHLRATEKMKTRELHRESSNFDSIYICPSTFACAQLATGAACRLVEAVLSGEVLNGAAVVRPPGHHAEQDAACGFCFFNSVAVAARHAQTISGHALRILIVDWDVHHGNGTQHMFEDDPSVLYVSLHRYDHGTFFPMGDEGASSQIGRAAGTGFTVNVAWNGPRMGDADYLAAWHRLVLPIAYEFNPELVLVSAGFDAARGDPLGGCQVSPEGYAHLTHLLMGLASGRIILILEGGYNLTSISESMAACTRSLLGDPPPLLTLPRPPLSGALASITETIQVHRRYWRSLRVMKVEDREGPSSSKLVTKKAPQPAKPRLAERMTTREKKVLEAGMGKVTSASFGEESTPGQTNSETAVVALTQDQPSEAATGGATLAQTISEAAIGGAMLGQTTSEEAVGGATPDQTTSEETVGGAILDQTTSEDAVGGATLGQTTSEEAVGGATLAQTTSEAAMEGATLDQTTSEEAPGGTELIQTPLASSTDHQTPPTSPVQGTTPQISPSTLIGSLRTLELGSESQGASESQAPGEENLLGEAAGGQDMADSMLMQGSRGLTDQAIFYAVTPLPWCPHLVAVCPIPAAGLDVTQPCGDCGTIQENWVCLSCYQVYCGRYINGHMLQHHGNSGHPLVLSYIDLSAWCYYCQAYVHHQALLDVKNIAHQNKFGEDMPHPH
UniProt Q13547: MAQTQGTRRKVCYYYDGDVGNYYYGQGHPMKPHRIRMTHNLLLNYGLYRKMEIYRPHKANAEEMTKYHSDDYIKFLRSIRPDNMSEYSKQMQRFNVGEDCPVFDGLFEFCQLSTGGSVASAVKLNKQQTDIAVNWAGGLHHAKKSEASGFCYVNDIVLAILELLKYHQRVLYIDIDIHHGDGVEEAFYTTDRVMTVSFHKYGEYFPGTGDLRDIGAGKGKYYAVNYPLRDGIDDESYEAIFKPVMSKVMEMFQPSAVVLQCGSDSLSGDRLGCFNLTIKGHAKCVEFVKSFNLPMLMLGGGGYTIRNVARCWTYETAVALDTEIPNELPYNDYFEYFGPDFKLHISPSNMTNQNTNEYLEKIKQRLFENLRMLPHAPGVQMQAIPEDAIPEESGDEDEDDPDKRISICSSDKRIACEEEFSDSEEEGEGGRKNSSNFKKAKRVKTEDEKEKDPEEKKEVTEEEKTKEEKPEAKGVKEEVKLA

These are yes or no findings as the source states them, for the method shown. In cells and extracts the contact can be indirect. Some binding calls cover weakened binding; strength is not graded here.

Take “HDAC-6 (from UniProt Q9UBN7 1-1215) (enzyme)”: in experiment [1], the binding result is on record as “binds”.
Turning to “endogenous β-catenin (from UniProt P35222 1-781)”, in experiment [2], the binding result is on record as “binds”.
Consider “HDAC-1 (histone deacetylase 1) (from UniProt Q13547 1-482) (enzyme)”, for which, in experiment [1], the binding entry is recorded as “binds”.

B1: endogenous Bcl-3 (B-cell lymphoma 3) (protein, UniProt P20749 1-454)
chain: T1 sequence
In the case of B1, the binding result in experiment [1] is on record as “binds”.

The record behind these values is publication PMC7193563.
